Results are given in words; binding and its absence hold for the method and conditions named. In cells and extracts the contact can be indirect. Binding can be weak; no strength is given.
B1: IKKβ, endogenous (protein, UniProt O14920 1-756)
chain: MSWSPSLTTQTCGAWEMKERLGTGGFGNVIRWHNQETGEQIAIKQCRQELSPRNRERWCLEIQIMRRLTHPNVVAARDVPEGMQNLAPNDLPLLAMEYCQGGDLRKYLNQFENCCGLREGAILTLLSDIASALRYLHENRIIHRDLKPENIVLQQGEQRLIHKIIDLGYAKELDQGSLCTSFVGTLQYLAPELLEQQKYTVTVDYWSFGTLAFECITGFRPFLPNWQPVQWHSKVRQKSEVDIVVSEDLNGTVKFSSSLPYPNNLNSVLAERLEKWLQLMLMWHPRQRGTDPTYGPNGCFKALDDILNLKLVHILNMVTGTIHTYPVTEDESLQSLKARIQQDTGIPEEDQELLQEAGLALIPDKPATQCISDGKLNEGHTLDMDLVFLFDNSKITYETQISPRPQPESVSCILQEPKRNLAFFQLRKVWGQVWHSIQTLKEDCNRLQQGQRAAMMNLLRNNSCLSKMKNSMASMSQQLKAKLDFFKTSIQIDLEKYSEQTEFGITSDKLLLAWREMEQAVELCGRENEVKLLVERMMALQTDIVDLQRSPMGRKQGGTLDDLEEQARELYRRLREKPRDQRTEGDSQEMVRLLLQAIQSFEKKVRVIYTQLSKTVVCKQKALELLPKVEEVVSLMNEDEKTVVRLQEKRQKELWNLLKIACSKVRGPVSGSPDSMNASRLSQPGQLMSQPSTASNSLPEPAKKSEELVAEAHNLCTLLENAIQDTVREQDQSFTALDWSWLQTEEEEHSCLEQAS
B2: TNFR1 associated death domain protein (TRADD), endogenous (protein, UniProt Q15628 1-312)
chain: MAAGQNGHEEWVGSAYLFVESSLDKVVLSDAYAHPQQKVAVYRALQAALAESGGSPDVLQMLKIHRSDPQLIVQLRFCGRQPCGRFLRAYREGALRAALQRSLAAALAQHSVPLQLELRAGAERLDALLADEERCLSCILAQQPDRLRDEELAELEDALRNLKCGSGARGGDGEVASAPLQPPVPSLSEVKPPPPPPPAQTFLFQGQPVVNRPLSLKDQQTFARSVGLKWRKVGRSLQRGCRALRDPALDSLAYEYEREGLYEQAFQLLRRFVQAEGRRATLQRLVEALEENELTSLAEDLLGLTDPNGGLA

Assays:
[1] = molecular target: tumour necrosis factor receptor 1 (TNFR1), endogenous (human (endogenous in HT-29, HeLa, Panc-1)); assay: co-IP; HeLa cells, endogenous proteins; anti-TNFR1 antibodies and protein G agarose; 250 ng/ml EGF for 15 min for the EGFR pair; TNF-α, T/Bi or T/C with or without EGF for the other partners
[2] = molecular target: tumour necrosis factor receptor 1 (TNFR1), endogenous (human (endogenous in HT-29, HeLa, Panc-1)); assay: co-IP; Panc-1 cells, endogenous TNFR1 complex, T/Bi with or without EGF (Fig. S14D)
[3] = molecular target: tumour necrosis factor receptor 1 (TNFR1), endogenous (human (endogenous in HT-29, HeLa, Panc-1)); assay: co-IP; HT-29 cells, endogenous proteins; lysis buffer with 1.0% Triton X-100, 150 mM NaCl, pH 7.5; anti-TNFR1 antibodies and protein G agarose (the text also names anti-EGFR and anti-p-EGFR); cells untreated or treated with TNF-α, T/Bi, T/C or T/Bi/Z, with or without erlotinib, EGFR WT or knockout

Binder | binding [1] | binding [2] | binding [3]
B1 | binds |  | 
B2 | binds | binds | binds

Source: PMC11445491
